For test [1], the target named is アミロイドβ (antigen of the amyloid β ELISA) (UniProt P05067). Kind of test: amyloid β ELISA, purified antibody. In general terms: In an ELISA, binding on a coated surface is turned into a signal by an enzyme label.
Test [2] has as its target AD疾患患者由来の脳の斑 (amyloid in plaques of human brain sections) (human) (UniProt P05067). Kind of test: immunohistochemistry on formic acid treated paraffin sections of human brain.
The next test addresses T1, ペプチド12(Aβのaa12-20).
T1 sequence (peptide, biotinylated): VHHQKLVFF
In words: peptide ELISA, biotinylated peptides on streptavidin plates, hC2 at 200 ng/ml.

Sequences of proteins named here, by UniProt entry; tags and fusion partners are left off. Residues count along the entry.
UniProt P05067, residues 672-713: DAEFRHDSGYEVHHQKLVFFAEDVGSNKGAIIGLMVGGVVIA

The target in a further test is ペプチド14(Aβのaa 14-22) (UniProt P05067). The description is as above.
For another test, the target named is ペプチド15(Aβのaa 15-23) (UniProt P05067). The test is described as above.
For another test, the target named is ペプチド16(Aβのaa 16-24) (UniProt P05067). Described as above.
Test [3] addresses アミロイドβ (antigen of the amyloid β ELISA) (UniProt P05067). In words: amyloid β ELISA, conditioned medium of transient transfection.

From patent JP2023110925A come the findings set out here.

These are yes or no findings as the source states them, for the method shown. Some results given as binding are weak or reduced against the parent protein; the word gives no strength.

B1: C2 ChVH AF/ChVK抗体 (purified from NS0) (antibody, human IgG4 S228P, kappa, V domains shown)
VH: EVQLVESGGGLVQPGGSLKLSCAASGFTFSSYGMSWVRQTPDKRLELVASINSNGGSTYYPDSVKGRFTISRDNAKNTLYLQMSSLKSEDTAMYYCASGDYWGQGSTLTVSS
VL: DVVMTQTPLSLPVSLGDQASISCRSSQSLVYSNGDTYLHWYLQKPGQSPKLLIYKVSNRFSGVPDRFSGSGSGTDFTLKISRVEAEDLGVYFCSQSTHVPWTFGGGTKLEIKR
Consider B1, for which the binding entry in test [1] and in test [2] was “binds” in each case.

B2: C2 HuVH2/HuVK1 (purified) (antibody, human IgG4 S228P, kappa, name in Kabat numbering, V domains shown)
VH: EVQLVESGGGLVQPGGSLRLSCAASGFTFSSYGMSWVRQAPGKGLEWVASINSNGGSTYYPDSVKGRFTISRDNAKNSLYLQMNSLRAEDTAVYYCASGDYWGQGTTVTVSS
VL: DIVMTQSPLSLPVTPGEPASISCRSSQSLVYSNGDTYLHWYLQKPGQSPQLLIYKVSNRFSGVPDRFSGSGSGTDFTLKISRVEAEDVGVYYCSQSTHVPWTFGQGTKVEIKR
With B2, the binding result in test [1] is “binds”.

B3: ヒト化抗ヒトアミロイドβモノクローナル抗体hC2 (antibody, human IgG4 S228P, kappa, V domains shown)
VH: EVQLVESGGGLVQPGGSLRLSCAASGFTFSSYGMSWVRQAPGKGLELVASINSNGGSTYYPDSVKGRFTISRDNAKNSLYLQMNSLRAEDTAVYYCASGDYWGQGTTVTVSS
VL: DIVMTQSPLSLPVTPGEPASISCRSSQSLVYSNGDTYLHWYLQKPGQSPQLLIYKVSNRFSGVPDRFSGSGSGTDFTLKISRVEAEDVGVYYCSQSTHVPWTFGQGTKVEIKR
Regarding B3, the binding entry with ペプチド12(Aβのaa12-20), with ペプチド14(Aβのaa 14-22), with ペプチド15(Aβのaa 15-23) and in the test with ペプチド16(Aβのaa 16-24) was “binds” throughout.

B4: C2 HuVH AF バージョン2 + キメラC2カッパ鎖 (transient) (antibody, name in Kabat numbering, V domains shown)
VH: EVQLVESGGGLVQPGGSLRLSCAASGFTFSSYGMSWVRQAPGKGLEWVASINSNGGSTYYPDSVKGRFTISRDNAKNSLYLQMNSLRAEDTAVYYCASGDYWGQGTTVTVSS
VL: DVVMTQTPLSLPVSLGDQASISCRSSQSLVYSNGDTYLHWYLQKPGQSPKLLIYKVSNRFSGVPDRFSGSGSGTDFTLKISRVEAEDLGVYFCSQSTHVPWTFGGGTKLEIK
Consider B4, for which the binding result in test [3] is “binds”.
